The list shows a part of the results. Further columns of the screen follow, without active or inactive calls. Most of these compounds were active or inconclusive in the main read-out, so they are no random draw. Words in brackets tell the shape of the fitted curve; partial curves, single points and poor fits give uncertain potencies.
Assay: qHTS Assay for Lipid Storage Modulators in Drosophila S3 Cells;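 on cell number change: cells counted by Cell Tracker Red CMTPX staining in the red channel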
Details: BODIPY lipid droplet fluorescence, 18-24 h; for cell number change: measured here: cell count max response, cells fed with added oleic acid
Method in brief: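 Drosophila S3 cells got compounds at several concentrations plus oleic acid (400 uM solution). Laser-scanning cytometry with 488 nm excitation read lipid droplets at 500-530 nm and cells at 575-640 nm. Percent activity was relative to 20 uM Triacsin C.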

[1] = measured here: cell number channel AC50, cells fed with added oleic acid
[2] = measured here: lipid fluorescence (Fed channel) AC50, cells fed with added oleic acid

Compound | cell number change [%] | AC50 [1] | AC50 [2]
Cn1c(=O)c(=O)n(C)c2cc(S(=O)(=O)NCCN3CCN(c4ccccc4F)CC3)ccc21 | 2.36 | 0.82 µM [rising, single point] | 
CCOC(=O)CN1CC23C=CC(O2)C(C(=O)O)C3C1=O (stereo not given) | 7.86 |  | 1.46 µM [falling, partial curve, poor fit]
CCN(CC)c1ccc(/C=N/N2C(=O)c3ccccc3C2=O)cc1 | 14.8 |  | 1.3 µM [falling, full curve]
CC(=O)Oc1ccc2nc(CN3C(=O)c4ccc([N+](=O)[O-])cc4C3=O)oc(=O)c2c1 | 15.4 |  | 2.31 µM [falling, single point]
CCOC(=O)c1ccccc1NC(=O)CN(c1ccccc1OCC)S(C)(=O)=O | 0.129 |  | 1.84 µM [rising, full curve]
CCN(C(=O)COC(=O)c1cc(S(=O)(=O)N(C)C)ccc1Cl)C1CCS(=O)(=O)C1 (stereo not given) | 1.76 |  | 29.1 µM [rising, single point]
S=C(Nc1ccc(Br)cc1)NC1CCN(Cc2ccccc2)CC1 | -37.6 | 25.1 µM [falling, single point] | 
CCc1ccc(S(=O)(=O)Nc2ccc(Cl)cn2)cc1 | 33.3 |  | 
O=C(Cn1cc(C(F)(F)F)cc(Cl)c1=O)NCc1ccccc1 | 27 | 0.00651 µM [rising, full curve, poor fit] | 0.58 µM [rising, single point]
CC1CCCCN1CCCNc1ccc(C(CC(N)=O)NC(=O)Cc2ccc(Cl)cc2)cc1[N+](=O)[O-] (stereo not given) | 17.1 | 4.11 µM [rising, partial curve, poor fit] | 6.51 µM [rising, single point]
Cc1cc(=O)[nH]c2c(C)cc(S(=O)(=O)Nc3ccc(O)cc3)cc12 | -8.14 |  | 6.51 µM [rising, single point]
CN(Cc1ccccc1)c1nc(N)c([N+](=O)[O-])c(Nc2cccc(F)c2)n1 |  | 2.59 µM [rising, partial curve] | 18.4 µM [rising, partial curve]
COc1ccc(NC(=O)CNC(=O)Cn2cnc3sc(C)c(C)c3c2=O)cc1OC | -9.44 |  | 6.51 µM [rising, single point]
CCN(CC)S(=O)(=O)c1ccc(N2CCCC2)c(NC(=O)CC(C)(C)C)c1 | 13.8 | 2.06 µM [rising, partial curve, poor fit] | 
COc1ccc(OC)c(/C=N/NC(=O)c2cc3c(OC)c(OC)ccc3[nH]2)c1 | -33.6 |  | 2.31 µM [rising, partial curve]
COc1ccc(CC(=O)OCc2nnc(-c3ccccc3)o2)cc1 | 3.95 |  | 
COc1ccc(/C=C2\CCc3ccccc3C2=O)cc1Cn1cccn1 | 123 | 9.2 µM [rising, partial curve] | 18.4 µM [rising, partial curve]
CC(Oc1ccccc1)C(=O)Nc1nnc(S(=O)(=O)Nc2ccccc2)s1 (stereo not given) | 1.8 |  | 
CCOc1ccc(Br)cc1/C=N/NC(=O)c1ccncc1 | -65.1 | 32.6 µM [falling, single point] | 

Compound | cell number change [%] | AC50 [1] | AC50 [2]
O=C(Nc1ccc(Cc2ccncc2)cc1)c1ccc(S(=O)(=O)N2CCOCC2)cc1 | 2.23 |  | 
Clc1ccc(-c2nc3ncccn3c2Cl)cc1 | 35.7 | 7.31 µM [rising, partial curve] | 
CCn1nc(C(=O)OC2CCOC2=O)c2ccccc2c1=O (stereo not given) | -27.2 | 0.291 µM [falling, full curve, poor fit] | 11.6 µM [falling, partial curve]
Cc1cc(=O)[nH]c(SCCCOc2ccc3c(c2)CCC3)n1 | 88.3 | 18.4 µM [rising, partial curve] | 
CC(Sc1nc2ccccc2c(=O)n1CC1CCCO1)C(=O)N(C)Cc1ccccc1 (stereo not given) | -39.6 | 29.1 µM [falling, single point] | 
CC(=O)c1cccc(OCC(=O)c2cc(C)n(-c3cc(C)on3)c2C)c1 | -48.2 | 32.6 µM [falling, single point] | 29.1 µM [falling, single point]
O=C(COC(=O)COc1ccccc1)NCc1ccco1 | 0.113 |  | 11.6 µM [rising, partial curve]
COc1cccc(CNC(=O)C2CCN(S(=O)(=O)c3ccc4c(c3)NC(=O)C(C)S4)CC2)c1 (stereo not given) | -14.9 |  | 
CCOC(=O)Cc1csc(NC(=O)CSc2nnc(-c3ccc(F)cc3)o2)n1 | 2.12 |  | 
O=C(N/C(=C\c1ccccc1)C(=O)N1CCCCC1)c1ccco1 | -19 |  | 29.1 µM [rising, single point]
COc1ccccc1OCC(=O)Nc1cccc(C(=O)N2CCOCC2)c1 | 0.135 |  | 0.259 µM [rising, full curve, poor fit]
COc1ccc(CCNC(=O)C(=O)NCC2OCCN2S(=O)(=O)c2ccc(Br)cc2)cc1OC (stereo not given) | -24.8 | 0.0291 µM [falling, full curve, poor fit] | 20.6 µM [falling, partial curve, poor fit]
COc1ccc(OC)c(/C=N/NC(=O)Cc2nc3ccccc3[nH]2)c1 | 62.5 | 29.1 µM [rising, single point] | 5.8 µM [rising, partial curve]
COC(=O)c1cc(OC)c(OC)cc1NC(=O)CN1C(=O)c2ccccc2C1=O |  | 5.17 µM [rising, partial curve] | 29.1 µM [falling, partial curve]
N#Cc1ccccc1NC(=S)NC(=O)c1cccnc1 | -17.1 |  | 6.51 µM [falling, single point]
COc1cccc(-c2nc(NCc3ccco3)c3ccccc3n2)c1O | -15.4 |  | 29.1 µM [falling, single point]
Cc1nc(NC(=O)CN(C)S(=O)(=O)c2ccc(Cl)cc2)sc1C | 82.5 | 29.1 µM [rising, single point] | 29.1 µM [rising, partial curve]
COc1ccccc1NC(=O)c1ccccc1-c1ccccc1C(=O)O | 6.96 |  | 
Cc1ccc(-n2c(O)c(/C=N/c3ncn[nH]3)c3ccccc3c2=O)cc1 | -22.7 |  | 

Compound | cell number change [%] | AC50 [1] | AC50 [2]
CCOC(=O)C(=NC1CCS(=O)(=O)C1)NNc1cc(Cl)ccc1Cl (stereo not given) | 4.04 |  | 11.6 µM [rising, single point]
Cc1ccc(N2CC(NC(=O)C(=O)c3c(C)[nH]c4ccccc34)CC2=O)cc1C (stereo not given) |  | 0.58 µM [rising, single point] | 0.517 µM [rising, partial curve, poor fit]
Cc1ccc(S(=O)(=O)N2CCN(C(=O)COC(=O)CNC(=O)c3ccc(Cl)cc3Cl)CC2)cc1 | 10.7 |  | 5.17 µM [falling, full curve]
C=CCn1c(=N)c(C(=O)NCCCOC)cc2c(=O)n3cccc(C)c3nc21 | 30 | 0.461 µM [rising, full curve, poor fit] | 0.103 µM [rising, full curve, poor fit]
O=C1CCCC2=C1C(c1ccccn1)Nc1ccc(C(=O)c3ccccc3)cc1N2 (stereo not given) | -2.87 |  | 6.51 µM [rising, single point]
CCN(CC)C(=O)Sc1cccc2cccnc12 | -19.3 | 0.0231 µM [falling, full curve, poor fit] | 
Cc1cc(C)n(-c2ccc(C(=O)OCC(=O)Nc3ccc(Cl)c(S(=O)(=O)N(C)C)c3)cc2)n1 | 11.4 | 0.184 µM [rising, full curve, poor fit] | 6.51 µM [rising, single point]
CCN(CC)CCN(C(=O)c1cc2ccccc2cc1OC)c1nc2ccc(OC)cc2s1 | 40.4 | 10.3 µM [rising, partial curve, poor fit] | 20.6 µM [rising, partial curve]
CC(=O)c1cc2c(cc1NC(=O)CCc1c(C)nc3ncnn3c1C)OCO2 | -11.3 |  | 0.0651 µM [falling, full curve, poor fit]
CCCCCNC(=O)CC1Nc2c3ccccc3nc(=S)n2C1=O (stereo not given) | 14.4 |  | 0.651 µM [falling, full curve, poor fit]
Cc1cc2ccccc2n2c(SCC(=O)Nc3ccc(S(=O)(=O)N4CCC(C)CC4)cc3)nnc12 | 9.7 |  | 14.6 µM [rising, single point]
Oc1cc(O)c2c(c1)O[C@H](c1ccc(O)c(O)c1)[C@H](O)C2 | 1.5 |  | 
COc1ccc2oc(C(=O)Nc3ccccc3N3CCOCC3)c(C)c2c1 | -16.7 | 0.00461 µM [falling, full curve, poor fit] | 
Cc1ccc(-c2c3c(=O)n(C)c(=O)n(C)c3cn2-c2ccccc2O)cc1 | 66.9 | 29.1 µM [rising, single point] | 
CCN1CCN(c2oc(COc3ccc(Cl)cc3)nc2C#N)CC1 | 10.5 |  | 0.82 µM [falling, single point]
CC(=O)Nc1sc(C)c(C)c1C(=O)OCC(=O)N(CC(C)C)c1c(N)n(Cc2ccccc2)c(=O)[nH]c1=O | 11 | 0.58 µM [rising, full curve] | 
O=C(Cc1ccccc1)N1CCN(c2ccccc2F)CC1 | -4.23 |  | 
O=C(OCC(=O)N1CCCC1)c1ccc(Cl)nc1 | 3.76 |  | 0.92 µM [falling, full curve, poor fit]
COc1cc2c(=O)nc3n(c2cc1OC)C(c1ccccc1)N=C(N)N3 (stereo not given) | -129 | 2.06 µM [falling, partial curve] | 

Fetched by compound from the entries so far:
Compound | cell number change [%] | AC50 [1] | AC50 [2]
CC(=O)c1cccc(OCC(=O)c2cc(C)n(-c3cc(C)on3)c2C)c1 | -48.2 | 32.6 µM [falling, single point] | 29.1 µM [falling, single point]
CCOC(=O)Cc1csc(NC(=O)CSc2nnc(-c3ccc(F)cc3)o2)n1 | 2.12 |  | 

Source: PubChem BioAssay AID2685 (National Center for Advancing Translational Sciences (NCATS), 2010)
